Measured values reported in the supplement of paper PMC6078165.

System: Hs578T
Assay: relative JC-1 red fluorescence (viability) vs pre-drug, coculture with fibroblast (fraction); higher = more viable cancer cells
Description: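 JC-1 labelled TNBC cells cocultured 1:1 (1,500 cells each) with CellTrace Violet stained primary or stromal fibroblasts in 384-well plates in FluoroBrite medium, treated with one of 42 anticancer drugs at 0.1, 1, 10 or 100 uM. JC-1 red fluorescence (mitochondrial integrity in cancer cells only) was read by plate reader every 8 h for 72 h. Values are normalised to each well's pre-drug value. The stock of one drug was tenfold lower, so its dose labels may be too high.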

C=C1C[C@@H]2[C@H](CC[C@]3(C)C(=O)CC[C@@H]23)[C@@]2(C)C=CC(=O)C=C12 [Exemestane]
relative JC-1 red fluorescence
Details	8 h	16 h	24 h	32 h	40 h	48 h	56 h	64 h	72 h
10 µM	0.9251 ± 0.0071	0.82 ± 0.033	0.776 ± 0.03	0.749 ± 0.03	0.707 ± 0.035	0.669 ± 0.039	0.651 ± 0.042	0.604 ± 0.038	0.586 ± 0.038
100 µM	0.901 ± 0.018	0.868 ± 0.07	0.875 ± 0.099	0.862 ± 0.12	0.825 ± 0.13	0.786 ± 0.12	0.796 ± 0.14	0.76 ± 0.14	0.755 ± 0.15

relative JC-1 red fluorescence
Details	8 h	16 h	24 h	32 h	40 h	48 h	56 h	64 h	72 h
10 µM, coculture fibroblast: C12385	0.8619 ± 0.0042	0.78753 ± 6.1e-05	0.742 ± 0.034	0.668 ± 0.024	0.602 ± 0.031	0.567 ± 0.045	0.534 ± 0.046	0.505 ± 0.047	0.484 ± 0.055
10 µM, coculture fibroblast: H6013	0.921 ± 0.013	0.862 ± 0.0097	0.817 ± 0.022	0.783 ± 0.022	0.743 ± 0.028	0.728 ± 0.024	0.707 ± 0.027	0.698 ± 0.027	0.667 ± 0.02
10 µM, coculture fibroblast: H6019	0.795 ± 0.018	0.719 ± 0.036	0.731 ± 0.028	0.661 ± 0.023	0.637 ± 0.019	0.62 ± 0.016	0.589 ± 0.0086	0.571 ± 0.0067	0.544 ± 0.0074
10 µM, coculture fibroblast: H6076	0.9453 ± 0.0066	0.861 ± 0.03	0.821 ± 0.0097	0.7915 ± 0.0039	0.752 ± 0.0085	0.7395 ± 0.0034	0.713 ± 0.004	0.702 ± 0.0076	0.6864 ± 0.0022
10 µM, coculture fibroblast: H6231	0.9269 ± 0.0044	0.871 ± 0.012	0.798 ± 0.032	0.766 ± 0.034	0.697 ± 0.035	0.667 ± 0.041	0.609 ± 0.041	0.581 ± 0.05	0.557 ± 0.061
10 µM, coculture fibroblast: HADF	0.9252 ± 0.0011	0.885 ± 0.013	0.846 ± 0.011	0.8051 ± 0.0012	0.7772 ± 0.0041	0.74845 ± 0.00027	0.7068 ± 0.0061	0.69 ± 0.0091	0.6474 ± 0.0027
10 µM, coculture fibroblast: HCFa	0.923 ± 0.023	0.907 ± 0.087	0.831 ± 0.04	0.797 ± 0.036	0.739 ± 0.039	0.719 ± 0.041	0.679 ± 0.03	0.661 ± 0.016	0.6165 ± 0.0028
10 µM, coculture fibroblast: HCPF	0.9323 ± 0.0069	0.85 ± 0.028	0.801 ± 0.039	0.771 ± 0.049	0.708 ± 0.056	0.681 ± 0.068	0.648 ± 0.058	0.603 ± 0.06	0.566 ± 0.057
10 µM, coculture fibroblast: HHSteC	0.935 ± 0.015	0.8442 ± 0.0025	0.783 ± 0.019	0.735 ± 0.029	0.672 ± 0.052	0.626 ± 0.053	0.588 ± 0.061	0.541 ± 0.064	0.49 ± 0.071
10 µM, coculture fibroblast: HMF	0.882 ± 0.037	0.805 ± 0.034	0.757 ± 0.018	0.7366 ± 0.0022	0.6818 ± 0.0055	0.6596 ± 0.0033	0.6134 ± 0.0053	0.586 ± 0.0095	0.559 ± 0.027
10 µM, coculture fibroblast: HPFa	0.949 ± 0.0018	0.909 ± 0.012	0.796 ± 0.023	0.721 ± 0.026	0.669 ± 0.033	0.627 ± 0.033	0.574 ± 0.042	0.536 ± 0.049	0.469 ± 0.053
10 µM, coculture fibroblast: HUF	0.895 ± 0.031	0.785 ± 0.017	0.769 ± 0.048	0.672 ± 0.058	0.615 ± 0.062	0.574 ± 0.074	0.531 ± 0.071	0.508 ± 0.081	0.486 ± 0.083
10 µM, coculture fibroblast: Hs27A	0.835 ± 0.098	0.883 ± 0.028	0.825 ± 0.019	0.749 ± 0.054	0.805 ± 0.084	0.827 ± 0.12	0.851 ± 0.21	0.829 ± 0.19	0.774 ± 0.19
10 µM, coculture fibroblast: Hs343T	0.9211 ± 0.0058	0.833 ± 0.018	0.786 ± 0.025	0.76 ± 0.026	0.687 ± 0.017	0.655 ± 0.012	0.6 ± 0.013	0.568 ± 0.018	0.537 ± 0.023
10 µM, coculture fibroblast: WS1	0.825 ± 0.0086	0.748 ± 0.032	0.706 ± 0.05	0.625 ± 0.051	0.575 ± 0.047	0.555 ± 0.061	0.517 ± 0.058	0.495 ± 0.06	0.479 ± 0.059
100 µM, coculture fibroblast: C12385	0.827 ± 0.024	0.7594 ± 0.0023	0.729 ± 0.08	0.684 ± 0.079	0.639 ± 0.098	0.608 ± 0.1	0.576 ± 0.12	0.578 ± 0.14	0.567 ± 0.15
100 µM, coculture fibroblast: H6013	0.9165 ± 0.0027	0.869 ± 0.014	0.83 ± 0.044	0.758 ± 0.079	0.682 ± 0.098	0.634 ± 0.086	0.588 ± 0.085	0.572 ± 0.087	0.536 ± 0.086
100 µM, coculture fibroblast: H6019	0.789 ± 0.0052	0.758 ± 0.021	0.759 ± 0.039	0.69 ± 0.055	0.667 ± 0.06	0.647 ± 0.069	0.628 ± 0.069	0.625 ± 0.063	0.607 ± 0.059
100 µM, coculture fibroblast: H6076	0.906 ± 0.012	0.8569 ± 0.0052	0.8451 ± 0.0014	0.834 ± 0.014	0.776 ± 0.018	0.779 ± 0.017	0.769 ± 0.0083	0.7639 ± 0.0026	0.7794 ± 0.0037
100 µM, coculture fibroblast: H6231	0.899 ± 0.024	0.848 ± 0.022	0.847 ± 0.013	0.825 ± 0.026	0.761 ± 0.014	0.741 ± 0.018	0.705 ± 0.016	0.681 ± 0.019	0.668 ± 0.019
100 µM, coculture fibroblast: HADF	0.967 ± 0.017	0.951 ± 0.05	0.94 ± 0.062	0.897 ± 0.078	0.839 ± 0.062	0.795 ± 0.037	0.738 ± 0.034	0.731 ± 0.028	0.701 ± 0.018
100 µM, coculture fibroblast: HCFa	0.883 ± 0.01	0.8564 ± 0.0065	0.8159 ± 0.0025	0.7761 ± 0.0071	0.7054 ± 0.0013	0.6848 ± 0.0058	0.6556 ± 0.0059	0.6519 ± 0.0058	0.6133 ± 0.0043
100 µM, coculture fibroblast: HCPF	0.9226 ± 0.008	0.829 ± 0.035	0.748 ± 0.025	0.702 ± 0.025	0.61 ± 0.032	0.578 ± 0.022	0.553 ± 0.02	0.506 ± 0.025	0.487 ± 0.032
100 µM, coculture fibroblast: HHSteC	0.939 ± 0.011	0.896 ± 0.0062	0.881 ± 0.0033	0.84 ± 0.033	0.789 ± 0.042	0.757 ± 0.032	0.735 ± 0.051	0.726 ± 0.041	0.693 ± 0.024
100 µM, coculture fibroblast: HMF	0.913 ± 0.034	0.843 ± 0.068	0.785 ± 0.054	0.741 ± 0.032	0.659 ± 0.044	0.623 ± 0.042	0.588 ± 0.041	0.556 ± 0.026	0.54 ± 0.023
100 µM, coculture fibroblast: HPFa	0.961 ± 0.014	0.906 ± 0.017	0.841 ± 0.019	0.7684 ± 0.007	0.715 ± 0.049	0.671 ± 0.066	0.625 ± 0.078	0.598 ± 0.085	0.526 ± 0.064
100 µM, coculture fibroblast: HUF	0.874 ± 0.015	0.779 ± 0.014	0.7988 ± 0.0033	0.714 ± 0.009	0.663 ± 0.023	0.626 ± 0.023	0.593 ± 0.027	0.578 ± 0.035	0.571 ± 0.032
100 µM, coculture fibroblast: Hs27A	0.936 ± 0.018	0.912 ± 0.062	0.896 ± 0.092	0.846 ± 0.12	0.782 ± 0.091	0.772 ± 0.1	0.733 ± 0.092	0.732 ± 0.097	0.688 ± 0.1
100 µM, coculture fibroblast: Hs343T	0.942 ± 0.018	0.866 ± 0.039	0.828 ± 0.045	0.8 ± 0.065	0.718 ± 0.069	0.682 ± 0.064	0.625 ± 0.078	0.597 ± 0.081	0.585 ± 0.072
100 µM, coculture fibroblast: WS1	0.797 ± 0.031	0.73 ± 0.033	0.713 ± 0.032	0.639 ± 0.04	0.598 ± 0.047	0.563 ± 0.054	0.536 ± 0.066	0.527 ± 0.065	0.518 ± 0.058

± gives the standard deviation of the averaged measurements. The reference is the same well before dosing, and untreated signal decays as well.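 Fibroblast labels denote human fibroblasts, mainly primary ones from uterus (C12385, HUF), lung (H6013), bone (Hs27A), adrenal (HADF) and skin (WS1), plus mammary HMF and breast cancer-associated Hs343T. Cancer cells are basal-like or mesenchymal-like triple-negative breast cancer lines. A hit is a response shift exceeding 3x replicate standard deviation. The tissue of the other fibroblasts is not given here.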
